Source: patent publication US8647835B2, “Methods for separation, characterization and/or identification of microorganisms using spectroscopy” (bio Mérieux, Inc., priority 2008, dated 2014)
For at least one compound, name, drawing or mass did not settle the structure.

Test system: Streptococcus pneumoniae, strain WM-43
Assay: Gram stain and viability of S. pneumoniae recovered from pellet after detergent lysis buffer
Type: cell-based
Conditions: detergent at table concentration (0.45-3.0%) in 0.3M CAPS, pH 11.7; 1 minute 37 C
Procedure: Lysis buffers were prepared containing detergents of differing structure and lytic activity in a base buffer formulation of 0.3M CAPS, pH 11.7. These lysis buffers were functionally assessed using positive blood culture broth containing a clinical microorganism strain known to be sensitive to detergents and alkaline pH conditions, Streptococcus pneumoniae, strain WM-43. Parameters evaluated were microbial intrinsic fluorescence levels (Excitation-Emission Matrix spectra), separation efficiency, appearance of isolated microbial pellet, and Gram stain characteristics and viability of microorganisms recovered from the pellet beneath the density cushion.
The procedure was performed as follows:
Mix 2 parts of positive broth with 1 part of test lysis buffer, incubate in a 37 C water bath for 1 minute to lyse blood cells, then layer 0.5 mL of lysate over 0.2 mL of density cushion (14% w/v Iohexyl+1.93% w/v NaCl+10 mM Hepes, pH 7.4) dispensed into a 2-piece optical separation tube which was then hermetically sealed with a screw-cap. […]

CCCCCCCCO[C@@H]1O[C@H](CO)[C@@H](O)[C@H](O)[C@H]1O [Detergent 1, n-octyl glucoside]
Gram Stain of Pellet, Debris: 3+
